Source: the supplement of paper PMC10849652
The list shows a part of the results.

By UniProt entry, the sequences of proteins in these tests, tags left out. Where a name states a change or a piece, a line headed by the entry shows the natural chain unless it says otherwise.
UniProt Q9Y4G2: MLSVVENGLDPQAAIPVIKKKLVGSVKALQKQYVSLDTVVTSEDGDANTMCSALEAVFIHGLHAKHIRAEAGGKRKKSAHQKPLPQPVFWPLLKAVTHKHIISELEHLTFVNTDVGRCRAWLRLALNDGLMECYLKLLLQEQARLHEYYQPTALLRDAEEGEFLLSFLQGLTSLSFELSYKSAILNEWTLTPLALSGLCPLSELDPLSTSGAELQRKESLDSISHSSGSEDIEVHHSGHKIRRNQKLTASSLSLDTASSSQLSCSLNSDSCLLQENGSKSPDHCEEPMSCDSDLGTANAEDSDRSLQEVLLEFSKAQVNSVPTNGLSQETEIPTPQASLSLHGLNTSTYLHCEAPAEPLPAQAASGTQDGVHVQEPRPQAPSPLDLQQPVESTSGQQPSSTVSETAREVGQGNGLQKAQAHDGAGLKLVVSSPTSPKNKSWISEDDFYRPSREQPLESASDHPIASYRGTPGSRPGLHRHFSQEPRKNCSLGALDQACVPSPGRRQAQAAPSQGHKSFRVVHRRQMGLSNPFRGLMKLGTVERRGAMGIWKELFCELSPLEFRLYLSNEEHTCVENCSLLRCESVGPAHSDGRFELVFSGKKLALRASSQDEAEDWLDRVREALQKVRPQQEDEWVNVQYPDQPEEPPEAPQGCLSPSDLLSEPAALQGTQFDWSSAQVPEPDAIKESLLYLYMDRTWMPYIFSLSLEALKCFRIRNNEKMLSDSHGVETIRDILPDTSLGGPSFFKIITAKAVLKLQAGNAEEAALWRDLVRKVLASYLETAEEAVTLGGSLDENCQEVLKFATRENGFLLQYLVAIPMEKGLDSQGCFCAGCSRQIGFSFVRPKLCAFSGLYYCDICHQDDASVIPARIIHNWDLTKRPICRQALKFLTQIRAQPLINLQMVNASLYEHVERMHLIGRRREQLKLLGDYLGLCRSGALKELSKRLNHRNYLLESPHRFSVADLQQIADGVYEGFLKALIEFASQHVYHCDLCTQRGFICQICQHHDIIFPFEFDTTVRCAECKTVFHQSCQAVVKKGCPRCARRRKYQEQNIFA
UniProt Q8TC44: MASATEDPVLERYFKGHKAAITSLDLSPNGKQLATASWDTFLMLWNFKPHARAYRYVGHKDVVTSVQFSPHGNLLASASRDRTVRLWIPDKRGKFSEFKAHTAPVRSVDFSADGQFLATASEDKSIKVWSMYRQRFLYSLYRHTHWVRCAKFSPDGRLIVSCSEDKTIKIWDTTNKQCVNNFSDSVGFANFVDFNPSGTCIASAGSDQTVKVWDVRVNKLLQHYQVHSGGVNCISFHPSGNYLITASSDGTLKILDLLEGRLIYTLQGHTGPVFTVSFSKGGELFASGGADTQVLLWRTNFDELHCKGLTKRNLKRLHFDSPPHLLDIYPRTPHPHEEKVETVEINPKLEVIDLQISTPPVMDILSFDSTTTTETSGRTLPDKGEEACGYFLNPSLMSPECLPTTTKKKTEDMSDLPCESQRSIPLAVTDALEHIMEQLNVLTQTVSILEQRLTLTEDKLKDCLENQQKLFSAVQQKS
UniProt Q92871: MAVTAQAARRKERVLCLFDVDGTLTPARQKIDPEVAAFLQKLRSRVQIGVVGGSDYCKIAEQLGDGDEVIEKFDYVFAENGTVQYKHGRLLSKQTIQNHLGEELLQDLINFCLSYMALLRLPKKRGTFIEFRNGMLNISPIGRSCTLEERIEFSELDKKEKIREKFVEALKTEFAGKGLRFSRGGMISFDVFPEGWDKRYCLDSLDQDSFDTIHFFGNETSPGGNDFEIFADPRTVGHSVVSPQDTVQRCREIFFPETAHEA
UniProt Q15063: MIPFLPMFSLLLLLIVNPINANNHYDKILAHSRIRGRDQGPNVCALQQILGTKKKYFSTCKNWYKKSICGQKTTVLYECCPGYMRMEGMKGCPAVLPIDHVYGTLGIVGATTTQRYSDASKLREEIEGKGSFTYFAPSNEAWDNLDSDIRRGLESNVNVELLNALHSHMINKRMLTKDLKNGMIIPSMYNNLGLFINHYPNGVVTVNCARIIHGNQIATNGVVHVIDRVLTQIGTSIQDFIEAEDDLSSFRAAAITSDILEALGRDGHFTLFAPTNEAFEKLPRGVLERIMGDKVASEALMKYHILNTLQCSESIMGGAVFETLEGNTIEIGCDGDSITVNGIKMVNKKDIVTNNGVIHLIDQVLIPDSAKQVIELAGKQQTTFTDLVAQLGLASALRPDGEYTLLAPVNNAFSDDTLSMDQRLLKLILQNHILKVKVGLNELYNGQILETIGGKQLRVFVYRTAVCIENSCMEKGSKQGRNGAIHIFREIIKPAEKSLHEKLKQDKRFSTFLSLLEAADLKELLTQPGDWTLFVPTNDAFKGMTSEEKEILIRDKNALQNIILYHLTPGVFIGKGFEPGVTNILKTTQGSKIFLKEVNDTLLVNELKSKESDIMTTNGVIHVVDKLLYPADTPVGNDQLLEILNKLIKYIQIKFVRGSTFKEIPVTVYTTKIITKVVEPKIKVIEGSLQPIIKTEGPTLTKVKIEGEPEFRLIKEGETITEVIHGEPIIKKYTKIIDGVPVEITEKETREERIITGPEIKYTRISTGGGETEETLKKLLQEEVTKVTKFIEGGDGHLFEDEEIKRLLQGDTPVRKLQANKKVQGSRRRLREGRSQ
UniProt P45877: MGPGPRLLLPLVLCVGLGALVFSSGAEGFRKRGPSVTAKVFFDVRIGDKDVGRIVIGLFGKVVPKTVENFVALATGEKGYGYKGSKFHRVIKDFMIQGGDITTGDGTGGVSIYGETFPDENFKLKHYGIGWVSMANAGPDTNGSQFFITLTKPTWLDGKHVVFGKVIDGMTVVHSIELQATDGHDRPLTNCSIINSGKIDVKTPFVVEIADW
UniProt Q9H5K3: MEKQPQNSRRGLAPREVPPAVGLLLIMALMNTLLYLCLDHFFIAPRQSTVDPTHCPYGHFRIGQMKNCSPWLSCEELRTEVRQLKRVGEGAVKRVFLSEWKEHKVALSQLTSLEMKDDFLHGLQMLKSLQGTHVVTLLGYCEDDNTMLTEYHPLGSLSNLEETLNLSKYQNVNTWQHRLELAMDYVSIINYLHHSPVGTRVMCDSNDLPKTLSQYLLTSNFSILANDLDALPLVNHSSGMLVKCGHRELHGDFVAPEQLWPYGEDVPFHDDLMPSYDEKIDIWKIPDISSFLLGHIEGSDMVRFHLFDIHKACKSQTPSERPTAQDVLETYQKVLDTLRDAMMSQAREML
UniProt Q9HBL7: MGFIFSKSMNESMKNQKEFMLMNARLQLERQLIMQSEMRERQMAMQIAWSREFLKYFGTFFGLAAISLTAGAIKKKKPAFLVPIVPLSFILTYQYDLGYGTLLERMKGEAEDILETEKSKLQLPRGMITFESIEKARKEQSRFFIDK
UniProt Q9NW61: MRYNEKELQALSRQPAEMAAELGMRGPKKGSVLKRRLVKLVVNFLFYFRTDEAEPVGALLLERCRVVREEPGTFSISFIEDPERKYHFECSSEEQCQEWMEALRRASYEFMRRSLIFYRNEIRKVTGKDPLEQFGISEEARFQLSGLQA
UniProt P41247: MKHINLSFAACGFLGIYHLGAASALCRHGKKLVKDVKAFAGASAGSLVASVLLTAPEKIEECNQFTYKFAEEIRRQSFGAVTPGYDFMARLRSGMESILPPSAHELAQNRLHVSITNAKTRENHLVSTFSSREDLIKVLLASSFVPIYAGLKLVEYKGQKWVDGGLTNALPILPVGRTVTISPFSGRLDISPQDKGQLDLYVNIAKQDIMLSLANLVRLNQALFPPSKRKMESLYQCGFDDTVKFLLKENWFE
UniProt P29590: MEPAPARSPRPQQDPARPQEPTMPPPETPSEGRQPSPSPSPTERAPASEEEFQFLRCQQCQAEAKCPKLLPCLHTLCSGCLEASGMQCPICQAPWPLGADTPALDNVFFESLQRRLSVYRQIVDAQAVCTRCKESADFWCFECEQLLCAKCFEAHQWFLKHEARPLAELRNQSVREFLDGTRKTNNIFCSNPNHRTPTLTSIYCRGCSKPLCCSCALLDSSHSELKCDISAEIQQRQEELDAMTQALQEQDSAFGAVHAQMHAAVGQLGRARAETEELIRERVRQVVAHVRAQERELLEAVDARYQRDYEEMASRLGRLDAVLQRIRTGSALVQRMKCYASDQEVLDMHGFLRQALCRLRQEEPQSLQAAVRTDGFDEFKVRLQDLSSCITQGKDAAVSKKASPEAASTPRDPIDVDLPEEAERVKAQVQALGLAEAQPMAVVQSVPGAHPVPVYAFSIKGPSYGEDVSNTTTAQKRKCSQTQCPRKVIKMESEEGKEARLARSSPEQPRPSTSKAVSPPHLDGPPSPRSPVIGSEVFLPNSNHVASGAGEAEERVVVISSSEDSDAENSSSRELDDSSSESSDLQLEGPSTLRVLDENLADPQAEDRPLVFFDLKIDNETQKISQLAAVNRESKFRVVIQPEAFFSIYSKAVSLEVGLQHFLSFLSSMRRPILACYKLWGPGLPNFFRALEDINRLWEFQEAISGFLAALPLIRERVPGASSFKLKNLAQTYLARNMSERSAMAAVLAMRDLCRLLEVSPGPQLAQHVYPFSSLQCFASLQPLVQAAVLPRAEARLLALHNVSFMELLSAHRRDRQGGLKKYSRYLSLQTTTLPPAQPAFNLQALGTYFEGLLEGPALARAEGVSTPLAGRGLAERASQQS
UniProt Q58EX7: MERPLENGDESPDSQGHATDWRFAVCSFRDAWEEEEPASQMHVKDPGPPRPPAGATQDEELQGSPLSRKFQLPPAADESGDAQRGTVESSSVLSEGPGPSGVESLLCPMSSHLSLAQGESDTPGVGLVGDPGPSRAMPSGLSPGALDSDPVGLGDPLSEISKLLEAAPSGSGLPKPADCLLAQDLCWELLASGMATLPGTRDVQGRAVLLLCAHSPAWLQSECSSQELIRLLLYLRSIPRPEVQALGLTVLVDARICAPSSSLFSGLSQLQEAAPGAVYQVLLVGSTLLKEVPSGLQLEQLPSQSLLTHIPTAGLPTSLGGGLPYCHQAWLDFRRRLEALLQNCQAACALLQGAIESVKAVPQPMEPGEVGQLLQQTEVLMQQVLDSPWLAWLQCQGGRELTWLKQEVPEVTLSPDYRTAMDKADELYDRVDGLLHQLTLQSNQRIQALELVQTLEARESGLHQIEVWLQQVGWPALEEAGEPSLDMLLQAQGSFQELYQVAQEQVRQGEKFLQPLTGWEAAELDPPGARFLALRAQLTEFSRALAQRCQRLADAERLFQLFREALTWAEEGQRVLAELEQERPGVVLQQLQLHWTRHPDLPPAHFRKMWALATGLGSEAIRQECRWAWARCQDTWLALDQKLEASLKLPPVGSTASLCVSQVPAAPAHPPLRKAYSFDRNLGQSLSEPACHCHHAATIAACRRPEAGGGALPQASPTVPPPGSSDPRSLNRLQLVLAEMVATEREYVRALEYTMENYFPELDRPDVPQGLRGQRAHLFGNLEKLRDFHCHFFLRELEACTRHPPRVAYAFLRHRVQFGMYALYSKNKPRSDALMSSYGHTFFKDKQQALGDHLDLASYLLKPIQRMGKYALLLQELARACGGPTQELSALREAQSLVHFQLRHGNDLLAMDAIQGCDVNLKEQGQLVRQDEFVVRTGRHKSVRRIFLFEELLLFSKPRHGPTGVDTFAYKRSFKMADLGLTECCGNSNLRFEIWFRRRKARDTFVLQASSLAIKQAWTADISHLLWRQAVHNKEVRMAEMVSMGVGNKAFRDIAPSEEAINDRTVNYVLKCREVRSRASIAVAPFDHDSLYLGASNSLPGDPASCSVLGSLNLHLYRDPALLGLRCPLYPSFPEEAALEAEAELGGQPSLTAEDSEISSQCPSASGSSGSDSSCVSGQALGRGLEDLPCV
UniProt O00469: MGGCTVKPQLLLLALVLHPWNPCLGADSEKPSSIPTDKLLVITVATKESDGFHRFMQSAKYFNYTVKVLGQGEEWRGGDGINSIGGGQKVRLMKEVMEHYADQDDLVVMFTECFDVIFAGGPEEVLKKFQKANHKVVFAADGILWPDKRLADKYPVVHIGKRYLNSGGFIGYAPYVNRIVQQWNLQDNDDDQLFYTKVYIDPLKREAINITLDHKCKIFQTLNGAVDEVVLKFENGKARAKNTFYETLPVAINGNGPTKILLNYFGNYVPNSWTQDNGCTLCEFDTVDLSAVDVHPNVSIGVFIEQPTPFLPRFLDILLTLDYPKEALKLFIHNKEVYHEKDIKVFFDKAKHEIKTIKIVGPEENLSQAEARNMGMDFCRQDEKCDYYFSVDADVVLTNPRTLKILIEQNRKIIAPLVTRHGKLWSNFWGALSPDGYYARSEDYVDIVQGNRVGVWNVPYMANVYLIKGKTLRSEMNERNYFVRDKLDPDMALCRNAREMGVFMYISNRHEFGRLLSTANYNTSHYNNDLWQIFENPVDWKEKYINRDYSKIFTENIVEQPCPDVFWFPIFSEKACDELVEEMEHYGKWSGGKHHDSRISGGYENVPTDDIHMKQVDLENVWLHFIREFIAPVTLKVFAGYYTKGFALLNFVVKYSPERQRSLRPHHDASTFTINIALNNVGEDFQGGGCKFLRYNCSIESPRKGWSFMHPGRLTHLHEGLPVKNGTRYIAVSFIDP

compound: CNC(=O)C1=CC=CC=C1NC2=NC(=NC=C2Cl)NC3=C(C=C(C=C3)N4CCOCC4)OC; assay: log2 fold change, soluble protein after heating vs DMSO (PISA); higher = thermal stabilisation; K562 lysate, 10 uM; active = over 0.2 and 3.5 SD of the protein, either way, in both replicates (recomputed)
Outline: (§1)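 Quantification was by TMTpro 16plex LC-MS/MS with equalised channel sums, applied to the supernatant after 21,000xg for 90 min. Samples were crude K562 extract at 1 mg/mL protein in PBS pH 7.4 with 1 mM MgCl2, treated with 10 μM compound for 30 min, heated for 3 min across 48°C-58°C, pooled and brought to 0.5% NP-40 at 4°C. Values are log-two fold changes in thermal stability relative to solvent controls, from duplicates.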

Row | Target | log2 fold change
1 | PLXNB1 (UniProt O43157) | inactive: -0.037
2 | POTEKP (UniProt Q9BYX7) | inactive: 0.233
3 | PLTP (UniProt P55058) | inactive: -0.102
4 | PLEKHM1 (UniProt Q9Y4G2) | inactive: -0.005
5 | POC1B (UniProt Q8TC44) | inactive: -0.098
6 | PPARGC1B (UniProt Q86YN6) | inactive: -0.017
7 | PMM1 (UniProt Q92871) | inactive: -0.015
8 | POLG2 (UniProt J3KRM2) | inactive: -0.081
9 | POSTN (UniProt Q15063) | inactive: 0.119
10 | PMS1 (UniProt P54277) | inactive: -0.008
11 | PLXND1 (UniProt Q9Y4D7) | inactive: 0.015
12 | PLPP6 (UniProt Q8IY26) | inactive: -0.05
13 | POLR2J (UniProt P52435) | inactive: 0.013
14 | PPIC (UniProt P45877) | inactive: 0.024
15 | PNMT (UniProt P11086) | inactive: 0.048
16 | POMK (UniProt Q9H5K3) | inactive: 0.014
17 | PLGRKT (UniProt Q9HBL7) | inactive: 0.004
18 | PNMA8A (UniProt Q86V59) | inactive: 0.002
19 | POM121C (UniProt A8CG34) | inactive: 0.069
20 | PLEKHJ1 (UniProt Q9NW61) | inactive: -0.076

compound: CNC(=O)c1ccc(Nc2ncc(C(F)(F)F)c(NCc3nccnc3N(C)S(C)(=O)=O)n2)cc1 [defactinib]; assay: as above
Outline: as §1

Row | Target | log2 fold change
21 | PLTP (UniProt P55058) | inactive: -0.318
22 | POLR2K (UniProt P53803) | inactive: 0.081
23 | PLEKHM1 (UniProt Q9Y4G2) | inactive: -0.021
24 | POC1B (UniProt Q8TC44) | inactive: -0.037
25 | PMM1 (UniProt Q92871) | inactive: -0.011
26 | POSTN (UniProt Q15063) | inactive: -0.153
27 | PMS1 (UniProt P54277) | inactive: 0
28 | PLPP6 (UniProt Q8IY26) | inactive: -0.029
29 | PNPLA4 (UniProt P41247) | inactive: -0.148
30 | POC1A (UniProt Q8NBT0) | inactive: 0.009
31 | PML isoform 11 (UniProt P29590) | inactive: -0.132
32 | PPIC (UniProt P45877) | inactive: 0.077
33 | PLEKHG4 (UniProt Q58EX7) | inactive: 0.017
34 | PPHLN1 isoform 3 (UniProt Q8NEY8) | inactive: 0.019
35 | PNMT (UniProt P11086) | inactive: -0.257
36 | PLOD2 isoform 2 (UniProt O00469) | inactive: 0.164
37 | POMK (UniProt Q9H5K3) | inactive: 0.082
38 | PLGRKT (UniProt Q9HBL7) | inactive: -0.038

compound: CNc1nc(-c2ccc3c(N)n[nH]c3c2)cc(N2C[C@@H](C(=O)NC3CCCCC3)CC[C@H]2C)n1; assay: as above
Outline: as §1

Row | Target | log2 fold change
39 | PLXNB1 (UniProt O43157) | inactive: 0.079
40 | POTEKP (UniProt Q9BYX7) | inactive: 1.53
41 | PLTP (UniProt P55058) | inactive: -0.11
42 | POLR2K (UniProt P53803) | inactive: 0.13
43 | POMT1 (UniProt Q9Y6A1) | inactive: 0.073
44 | POC1B (UniProt Q8TC44) | inactive: -0.295
45 | POF1B isoform 1 (UniProt Q8WVV4) | inactive: -0.237
46 | PMM1 (UniProt Q92871) | inactive: -0.085
47 | PMS1 (UniProt P54277) | inactive: -0.039
48 | PLXND1 (UniProt Q9Y4D7) | inactive: -0.123
49 | PLPP6 (UniProt Q8IY26) | inactive: 0.154
50 | PNPLA4 (UniProt P41247) | inactive: -0.17
51 | PML isoform 11 (UniProt P29590) | inactive: 0.183
52 | POLR2J (UniProt P52435) | inactive: 0
53 | PPIC (UniProt P45877) | inactive: -0.052
54 | PLEKHG4 (UniProt Q58EX7) | inactive: -0.085
55 | PLOD2 isoform 2 (UniProt O00469) | inactive: -0.269
56 | POMK (UniProt Q9H5K3) | inactive: 0.012
57 | PLPPR3 isoform 3 (UniProt Q6T4P5) | inactive: -0.049
58 | PLGRKT (UniProt Q9HBL7) | inactive: 0.196
59 | POLR2F (UniProt U3KPV3) | inactive: -0.059
60 | PNMA8A (UniProt Q86V59) | inactive: -0.009

compound: COC(=O)N[C@@H](C)CNc1nccc(-c2cn(C(C)C)nc2-c2cc(Cl)cc(NS(C)(=O)=O)c2F)n1 [encorafenib]; assay: as above
Outline: as §1

Row | Target | log2 fold change
61 | PPFIBP1 (UniProt Q86W92) | inactive: 0.133
62 | POLR2K (UniProt P53803) | inactive: -0.062
63 | PLEKHM1 (UniProt Q9Y4G2) | inactive: 0.069
64 | POC1B (UniProt Q8TC44) | inactive: -0.086
65 | PMM1 (UniProt Q92871) | inactive: -0.008
66 | POSTN (UniProt Q15063) | inactive: -0.031
67 | PMS1 (UniProt P54277) | inactive: 0.046
68 | PNPLA4 (UniProt P41247) | inactive: -0.076
69 | POC1A (UniProt Q8NBT0) | inactive: 0.23
70 | PML isoform 11 (UniProt P29590) | inactive: 0.089
71 | POLR2J (UniProt P52435) | inactive: -0.076
72 | PLEKHG4 (UniProt Q58EX7) | inactive: 0.1
73 | PLOD2 isoform 2 (UniProt O00469) | inactive: 0.454
74 | POMK (UniProt Q9H5K3) | inactive: 0.029
75 | PLGRKT (UniProt Q9HBL7) | inactive: 0
76 | POLR2F (UniProt U3KPV3) | inactive: 0.177
77 | PNMA8A (UniProt Q86V59) | inactive: -0.023
78 | PPFIBP2 (UniProt Q8ND30) | inactive: 0.146
